These are yes or no findings as the source states them, for the method shown. In cells and extracts the contact can be indirect. A yes stands for co-enrichment or nearness to the bait. Other partners may have been found.
B1: PA3309, endogenous (protein, UniProt Q9HYT5 1-151)
chain: MYDRILVAVDGSPVSDRALEEAIKLAGLSGGKLRVITIVDSPLRHLPDYAVYYNPEPLREAALKAADDVLAKAREKVEASNVEGATFDRVCQERASEEIAERIELEAQASDADVVVMGTHGRRGMRRLMLGSVAEGLIRVASRPVLLVRDK
B2: PA0937, endogenous (protein, UniProt Q9I521 1-179)
chain: MSMSLRDQLLKAGLVNEKQAKQATKQKQKQQRLEHKNQVDKDDSQRQAAEQAKAEKLARDQELNRQQQEKAEKKAKAAQIKQLIEGTRLPKLESDDYYNFVDAKKVKRIAVNDLIRDKLSRGSLAIVSYDGRYEIVPRDAAVKIQERDPRRVVLLNVQSQEPDEDDPYKDYVVPDDLMW
B3: PA3196, endogenous (protein, UniProt Q9HZ44 1-176)
chain: MKETLNELITLISTGCMGAEEIRRIADEAAQAYADPAGFLAANPDINYDDSFPIPLGEWVVVGSLPDIVLFQADTYAELFARIVASFGKDVAFNIKPKQLLKTEPLVALNRIQVQLSSMYPEKGGYVLVDFSEPLDDELQAVLVYTQDLPRVMALCVEAGIYAAPAYESLRDAEAE
B4: PA1899, endogenous (protein, UniProt Q9I2J9 1-162)
chain: MREYQRLKGFTDNLELRRRNRATVEHYMRMKGAERLQRHSLFVEDGCAGNWTTESGEPLVFRGHESLRRLAEWLERCFPDWEWHNVRIFETEDPNHFWVECDGRGKALVPGYPQGYCENHYIHSFELENGRIKRNREFMNPMQKLRALGIAVPQIKRDGIPT

target: PipA-GFP (P. aeruginosa); experiment: affinity purification with mass spectrometry; CoIP-seq: PipA-GFP expressed in bacteria, PipA-partner protein complexes enriched using GFP-affinity beads, candidates identified by mass spectrometry

Binder | binding
B1 | binds
B2 | binds
B3 | binds
B4 | binds

Source: publication PMC13539228
